The whole screen tested about 53,000 sequences, of which about 3,700 (7%) were called active.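 The calls were made as follows: active = gene knockdowns whose robust z-score for IL-1 alpha signal is at least 2 or at most -2, so actives lie on both sides; inactive = the rest.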 This is one part of the list.

This experiment is described as follows: Components of the Cytosolic LPS Sensing Pathway: Gene Identification via Genome-wide siRNA Screen.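 Also: robust z of the log signal after scaling to non-targeting control siRNA wells of the plate.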 The following applies: RAW264.7 macrophages, IL-1a HTRF, actives lie on both sides, screened at 100 nM (by protocol), cells primed 5 h with Pam3CSK4 first. In short, it runs like this:
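Supernatant IL-1a by HTRF from RAW264.7 cells primed with Pam3CSK4 (5 hours) and transfected with LipidA (24 hour) after 48h siRNA knockdown at 100 nM; cell viability checked with CellTiter-Glo.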
Take GAAAAGAAUUCCAGAAGAUTT against Sec61g: the z-score was inactive: 1.19.
As for GGCCACAGAACCACAAAACTT against Pon3, the figure is inactive: -1.5; as for GGAAUGUGUUGAAAUAUGATT against P4ha3, inactive: 0.0288.
As for CCAUUCGGACCAAAGUGUATT against Pelp1, the figure is inactive: 0.734; as for CCACAUGUCACAUCUUUUCTT against Mrpl47, inactive: 0.16.
As for CGUGGCACUAGAGAUCAAUTT against Arid3c, the figure is inactive: 1.46.
With GGAUAUCAAGAAAAUGACATT against Fam13b, the z-score was inactive: -0.657.
As for CCUUCAAUUUCAGUUCAGATT against Olfr1388, the figure is inactive: -0.765.
As for GUAAGCAGCAACAGAGGCUTT against Cd70, the figure is inactive: -0.558; as for GCUAGAAGCUCUUCAGAAATT against Morc2a, inactive: -0.825.
As for GCGAAGAGAUGCUAACUAUTT against Dhx8, the figure is active: -2.86; as for GGAAGCUGGUUCUACUGUCTT against Arl6ip1, inactive: 0.785.
For GGAAUGCAUGCUAAUUCAGTT against Thsd1, the z-score is inactive: 1.1.
As for UGCGUUUUGUGCUUCCUGUTT against Olfr960, the figure is inactive: -1.57; as for GCACUUUCCUUUAUUGUGUTT against Fam117a, inactive: -1.41.
As for “GCAACACAGAUCUUAGAAATT against 1810030O07Rik”, the figure is inactive: -0.579.
On to GGGAAUUCUACACUCAUAUTT against Nme8, for which the z-score is inactive: 0.737.
As to GGAAACCUGAUUGCAUAUGTT against Nup37, the z-score was inactive: -0.259.
The result for GGGAAAAUCUCUGAAAGAATT against Bag1 reads inactive: 0.707; that for GCCUAUGUACAGUUUGAAGTT against Grsf1, inactive: -0.392.
As for GGUUAUACGCUUAGAUUUATT against Irx5, the figure is inactive: 1.77; as for GCAACUGAGAGAUGUCAUCTT against Gbp6, inactive: -0.806; as for GGUGUUCGUUGUGUGUCUUTT against Abcc2, inactive: -0.781.
As for CCUGAUGUUAUUCCUUUUATT against Klhl20, the figure is inactive: -0.524.
GGUGGCACUCUUUCAGAUCTT against Dennd1a: the z-score was active: 2.08.
The result for CCUGAUAACUGAUGCCGUATT against Large2 reads inactive: 0.0472.
As for GGAAUUUCUUCUCUAUGUGTT against Slc22a29, the figure is inactive: -1.84; as for GGCAGCCAACGGAUUAAACTT against Cacna2d1, inactive: -0.755.
The result for CCUGGAGAUUCAGUACGAATT against Krt25 reads inactive: 1.55; that for GCAGACCAGACAGUAUUACTT against Zeb1, inactive: 1.22; that for GCUCAUUCCGUUUAUUAUUTT against Hacl1, inactive: -1.6.
Turning to CCUGUUGUACUGGAAGGACTT against Rtn2, the z-score was inactive: -0.109.
As for GGCUACGUGAAGGAACAGUTT against Rps10, the figure is inactive: 0.397.
The result for CCUGUCAUCACACACUAAUTT against Zbed4 reads inactive: -0.849; that for GGCCUGAGAUGACAACGACTT against Rpl35, inactive: -1.42.
As for GGUACGUGAGAGAAUUCUGTT against Trem2, the figure is active: 3.14; as for CGUACUGGUACGGAAGCGUTT against Adck1, inactive: 0.279; as for GUUGCAUUUCUCUCAAAGATT against Olfr799, inactive: 0.96.
GGAUGACAUCACAAGCAUCTT against Il24: the z-score was inactive: -0.678.
As for GGCACUGGCAGGAAAUUACTT against Alg6, the figure is inactive: -1.52; as for GGGAAUUCAGGAACACUUUTT against Galk2, inactive: -0.826.
The result for AAAGUGCAGAAAAAGCUGATT against Speer4d reads inactive: -0.721; that for CCCAUCAUUCCUUUCUUACTT against Ndfip2, inactive: 0.193; that for GGUCAAGGCUCACUCCAAATT against Acot4, inactive: 0.845.
As for CCCAUCAGACUUUGACCGUTT against Lbh, the figure is inactive: -1.45; as for GCGGAUUCGACAACAACAGTT against Mpp5, inactive: -0.488.
For GCUCUUUGAGACUAGGCCCTT against Xirp1, the z-score is inactive: -0.387.
As for CCAUUGAGACUUUUGCCAATT against Gabbr1, the figure is inactive: -0.89.
As for GGAAGAGACAACAGCUAUCTT against B3galt4, the figure is inactive: -1.91; as for GGAAGUUGCGCCUAUGGAATT against Hsd17b11, inactive: 1.22; as for GGCCUGUAUUUAGAUGUAUTT against Pts, inactive: -0.768.
As for CCAAGUCUACCUCUAUUUUTT against Pbsn, the figure is inactive: 1.77; as for GCUAGAACUGCUUACACCGTT against E2f8, inactive: -0.526.
Take GGAAUUGUUUGUGCUGCUUTT against Mapk9: the z-score is inactive: 1.33.
The result for GGAACUGAGCCAAGAAGCUTT against Prox2 reads active: -2.16; that for GGAAACACCAUGAAGAUGATT against Atpif1, inactive: -0.0257; that for GGUAGAAGACAGCUUAUUUTT against Lncpint, inactive: -0.655.
As for GGAAUUCUACCUGAAAAUCTT against Arel1, the figure is inactive: 0.122; as for GGGCAUAUUCAAACUUGUGTT against Elf2, inactive: -1.68.
The result for GCUGCCCGACCAAACAUUUTT against Mtch1 reads inactive: 1.
In the case of GGAGAAGAACUAAAACUUATT against Bbs7, the z-score was inactive: 0.846.
The result for GGAAUUGUUAAGGACGUAGTT against Nupl2 reads inactive: -0.843; that for GCCCUUAGCUGCAUGAAUUTT against Laptm4b, inactive: -0.661; that for GGAGCUGCUUUCAAAGCUGTT against Ccdc136, inactive: -0.831.
The result for GCACUAGCUAAUAAUGCAATT against Oxsm reads inactive: -1.54; that for GGUCCUAAAAAACUGAGCUTT against Pgap2, inactive: 0.225.
The result for GGAAAGAAAAAGGUGUCAATT against Phf23 reads inactive: -0.639; that for GGUAUAAAGACUGUGUAAATT against Zfp979, inactive: -0.84.
For the sequence GCGGUACUGUCAGUGCAAUTT against Cyth1, the z-score was inactive: 0.307.

For the origin of these results see PubChem BioAssay AID1508600 (Functional Genomics Laboratory (NCATS/FGL), 2020).
